In all, about 33,000 sequences were measured (“E-score (-0.5 to 0.5)”: median about -0.0059, highest 2% from about 0.26 on). The list shows a part of the results.

The test addresses T1, Cin5 (UniProt P40917).
T1 sequence: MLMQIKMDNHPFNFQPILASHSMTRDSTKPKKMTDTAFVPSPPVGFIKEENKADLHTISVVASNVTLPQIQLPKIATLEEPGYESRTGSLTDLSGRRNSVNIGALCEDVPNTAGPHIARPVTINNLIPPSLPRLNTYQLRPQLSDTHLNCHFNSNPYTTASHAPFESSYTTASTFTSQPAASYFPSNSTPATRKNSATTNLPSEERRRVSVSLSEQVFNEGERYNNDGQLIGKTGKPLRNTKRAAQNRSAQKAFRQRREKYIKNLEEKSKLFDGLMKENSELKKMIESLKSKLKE
Briefly: PBM E-score (8-mer binding enrichment) (E-score (-0.5 to 0.5)); higher = stronger / more preferred TF binding. The following applies: protein concentration: 100 nM; construct: GST-full length. The method in brief: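 Each ungapped eight-base word and its reverse complement, pooled, received an E-score from the Universal PBM Analysis Suite. Underlying scans, normalised with masliner, recorded fluorescent anti-GST bound to GST-tagged yeast transcription factors. These were applied at about 100-200 nM to universal all-10-mer Agilent arrays double-stranded by primer extension.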
For the sequence CGGATGAG, the “PBM E-score” value was 0.0497.

With AGACAACG, the “PBM E-score” value was 0.144.

Regarding ACGTGTCT, the “PBM E-score” value was -0.101.

As for CCGAGGAA, the “PBM E-score” value is -0.0167.

On to GCCTCGCA, for which the “PBM E-score” value was -0.0129.

In the case of AATCCACT, the “PBM E-score” value came out at 0.0266.

CTAAGGCC: the “PBM E-score” value was -0.2.

For CATGTAAG, the “PBM E-score” value amounted to 0.13.

For CACAAGTA, the “PBM E-score” value was 0.164.

For AGAGATCG, the “PBM E-score” value is -0.0713.

Consider AACCGCTC, for which the “PBM E-score” value was -0.0305.

With AGAAGCAA, the “PBM E-score” value worked out at 0.167.

In the case of AGGATTGG, the “PBM E-score” value is -0.109.

For CCCAACCG, the “PBM E-score” value was -0.0634.

Take ACAATACG: the “PBM E-score” value is 0.05.

With CGACTTCA, the “PBM E-score” value is -0.0477.

On to ACACACTG, for which the “PBM E-score” value stood at 0.0336.

ACCATCGC: the “PBM E-score” value came out at 0.0726.

ACTTTTGA: the “PBM E-score” value was determined as 0.0205.

Turning to GGAGAGTA, the “PBM E-score” value is -0.0903.

Take TCTTAGAA: the “PBM E-score” value worked out at 0.0741.

As for CACTTATA, the “PBM E-score” value is 0.0564.

ACTGCAAG: the “PBM E-score” value is -0.128.

As to CCAGAGTA, the “PBM E-score” value amounted to 0.0143.

With CTGCCAGC, the “PBM E-score” value is -0.211.

In the case of AAGTAGGT, the “PBM E-score” value is -0.0742.

As for GTGTAAAA, the “PBM E-score” value turned out to be 0.0726.

As for ATTTTAAA, the “PBM E-score” value stood at 0.184.

Take CTCCTATC: the “PBM E-score” value was -0.0307.

Take ATGCGGGA: the “PBM E-score” value amounted to 0.0954.

Turning to GGTCTATA, the “PBM E-score” value came to 0.0119.

Consider AGTGGGCC, for which the “PBM E-score” value was -0.322.

Consider CTTGCCAC, for which the “PBM E-score” value is -0.165.

Regarding GTTGGGCA, the “PBM E-score” value is -0.00142.

Take AGTGCTTA: the “PBM E-score” value turned out to be 0.199.

On to GGTATTGA, for which the “PBM E-score” value was 0.0194.

GCCTTTAC: the “PBM E-score” value was -0.0984.

With AATACACT, the “PBM E-score” value turned out to be 0.0899.

Turning to CCCTGCCA, the “PBM E-score” value was -0.0277.

Regarding CCAGGCAG, the “PBM E-score” value is -0.248.

Turning to AAATCGTT, the “PBM E-score” value amounted to 0.143.

Turning to ACAAATAG, the “PBM E-score” value is 0.0996.

Turning to CACCCCAA, the “PBM E-score” value was 0.111.

In the case of CCCGTTTA, the “PBM E-score” value is 0.069.

For ACGTTTTA, the “PBM E-score” value was found to be 0.0371.

As for GACTATAC, the “PBM E-score” value was 0.124.

On to TACCTTAA, for which the “PBM E-score” value is -0.0244.

CAGTCAGA: the “PBM E-score” value was -0.0354.

As for ACAGAGCT, the “PBM E-score” value was -0.259.

As for CCGGGGGC, the “PBM E-score” value was -0.345.

Take CCGTATAA: the “PBM E-score” value stood at 0.0713.

With ATTAAGAA, the “PBM E-score” value is -0.051.

Take ACAGAGTA: the “PBM E-score” value was -0.0123.

For the sequence GGGTACCA, the “PBM E-score” value was -0.183.

On to ATCGCCTA, for which the “PBM E-score” value was -0.0335.

For the sequence GAGAAATA, the “PBM E-score” value stood at 0.158.

With AATAAGGC, the “PBM E-score” value turned out to be 0.0645.

As to ATCCAGAA, the “PBM E-score” value is 0.00952.

As to GGACCTCC, the “PBM E-score” value was -0.271.

Regarding ATTCTCCC, the “PBM E-score” value is -0.0109.

On to CAGTCTGA, for which the “PBM E-score” value is -0.0198.

CGGTCGAA: the “PBM E-score” value is -0.0613.

Regarding GCATTAGC, the “PBM E-score” value is -0.0498.

In the case of CTTTGAAC, the “PBM E-score” value is -0.129.

On to AAGTCAAG, for which the “PBM E-score” value is -0.0178.

With CCATTCCG, the “PBM E-score” value was 0.0227.

Turning to ATGTTCTG, the “PBM E-score” value is -0.0006.

With TCAAACAA, the “PBM E-score” value was determined as 0.0761.

For the sequence CACTTCAC, the “PBM E-score” value is -0.0856.

Turning to AGCGCAAC, the “PBM E-score” value came to 0.0558.

With CGGATTGC, the “PBM E-score” value came out at 0.105.

In the case of AATCTTAT, the “PBM E-score” value worked out at 0.104.

Turning to AACATGTA, the “PBM E-score” value turned out to be 0.216.

With TCTACAAA, the “PBM E-score” value was -0.0653.

Regarding AATGTAGT, the “PBM E-score” value amounted to 0.125.

As for ACTTGAGA, the “PBM E-score” value was determined as 0.0805.

ACCTTGGG: the “PBM E-score” value turned out to be 0.101.

Take AGGTGGCG: the “PBM E-score” value was -0.137.

Turning to TGTGTGAA, the “PBM E-score” value worked out at 0.0241.

For the sequence ACTTTCCG, the “PBM E-score” value was 0.157.

For the sequence AGCAATAC, the “PBM E-score” value came out at 0.189.

Consider ATCAATTA, for which the “PBM E-score” value amounted to 0.317.

On to CTAAGATA, for which the “PBM E-score” value came out at 0.168.

For the sequence CACCTCTC, the “PBM E-score” value is -0.114.

Take ATGTGTCG: the “PBM E-score” value amounted to 0.125.

For CAGTTCGG, the “PBM E-score” value is -0.0252.

Regarding CGTGAGCC, the “PBM E-score” value is -0.0209.

In the case of GAGCCGGC, the “PBM E-score” value was -0.137.

Turning to TCATGAAA, the “PBM E-score” value worked out at 0.0973.

For AGTTTATG, the “PBM E-score” value is -0.00424.

For AACGAAAG, the “PBM E-score” value came to 0.014.

For GGGGTGGA, the “PBM E-score” value is -0.0549.

As for CATTGGTC, the “PBM E-score” value is -0.0877.

Turning to CACAAATC, the “PBM E-score” value came to 0.0238.

Turning to AAAGTTCC, the “PBM E-score” value was -0.117.

Take GTTTTCGA: the “PBM E-score” value was -0.0355.

Regarding CAACAGTA, the “PBM E-score” value stood at 0.0302.

In the case of AATATTCA, the “PBM E-score” value was 0.24.

Consider AAGTCCCA, for which the “PBM E-score” value was -0.177.

As for CTGAGTGA, the “PBM E-score” value is 0.195.

Take AGTAGATC: the “PBM E-score” value was -0.0135.

With ATTCCCCG, the “PBM E-score” value amounted to 0.151.

For the sequence CATTTGAG, the “PBM E-score” value is 0.0705.

As for CACTGCTG, the “PBM E-score” value was -0.0583.

As for AATTTCAT, the “PBM E-score” value is 0.062.

With CGGGACCA, the “PBM E-score” value is -0.163.

In the case of ACCGACAA, the “PBM E-score” value worked out at 0.0286.

Regarding AAAAAGCG, the “PBM E-score” value came out at 0.0497.

With GGGGCTCA, the “PBM E-score” value was -0.285.

Values taken from the supplement of paper PMC3334620.
